Results taken from patent US8987304B2, “Antituberculous composition comprising oxazole compounds” (priority 2005, dated 2015).

Molecular target: T1, CYP2B6 (Homo sapiens, UniProt P20813)
T1 sequence (P20813 1-491): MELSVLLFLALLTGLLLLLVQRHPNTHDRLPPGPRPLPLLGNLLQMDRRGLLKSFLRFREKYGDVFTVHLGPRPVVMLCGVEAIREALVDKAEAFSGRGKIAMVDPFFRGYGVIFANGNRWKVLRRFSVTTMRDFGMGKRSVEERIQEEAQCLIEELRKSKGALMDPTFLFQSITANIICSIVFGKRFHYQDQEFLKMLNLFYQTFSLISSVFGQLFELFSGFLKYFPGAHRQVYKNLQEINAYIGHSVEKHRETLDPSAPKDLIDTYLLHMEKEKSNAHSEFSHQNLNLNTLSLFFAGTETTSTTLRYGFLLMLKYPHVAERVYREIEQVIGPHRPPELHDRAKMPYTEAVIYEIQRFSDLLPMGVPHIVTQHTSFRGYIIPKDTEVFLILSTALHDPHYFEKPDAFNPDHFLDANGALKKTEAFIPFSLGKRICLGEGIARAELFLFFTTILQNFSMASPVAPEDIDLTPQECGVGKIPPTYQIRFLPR
Assay: 7-benzyloxyresorufin debenzylation activity in human hepatic microsome
Details: liver microsomes, pH 7.4, probe 7-benzyloxyresorufin ([…])
Experimental: 4-2. Effect of the Oxazole Compound (I) on the Enzymatic Activity of Each Molecular Species of Cytochrome P450 (CYP)
Basic reaction composition (0.5 ml) was consisting of microsome protein 0.2-1 mg/ml, 100 mM phosphate buffer (pH 7.4), 0.1 mM EDTA, NADPH generation system (2.5 mM β-NADP, 25 mM glucose-6-phosphate, 2 units glucose-6-phosphate dehydrogenase and 10 mM magnesium chloride), with or without each substrate and inhibitor, and the reaction was performed at 37° C. for 10-60 minutes. Each substrate and its concentration used were 7-ethoxyresorufln (0.5 μM), coumarin (2 μM), 7-benzyloxyresorufin (1.5 μM), tolbutamide (400 μM), S-mephenyloin (100 μM), bufuralol (20 μM), chlorzoxazone (100 μM), testosterone (100 μM) and nifedipine (50 μM).
Generated products after the metabolic response were measured by using high performance liquid chromatography after extraction.

Cc1ccccc1C(OCCN(C)C)c1ccccc1 (stereo not shown) [orphenadrine, reference compound] showed an activity at 1000 μM of 72%.
